Measurements reported in PubChem BioAssay AID504791 (Drosophila RNAi Screening Center, 2011)
Purpose: 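Factors in Argonaute-based small RNA production and activity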 (primary screen). Cell system: Drosophila S2-derived reporter cells. Reagents: long dsRNA against Drosophila genes, about 150-250 ng dsRNA per well (siRNA assay); about 80-120 ng (miRNA assay). Timing: about 5 days (siRNA assay); about 4 days (miRNA assay). Conditions: copper sulfate induction of reporters: 25 µM (siRNA assay); 200 mM stated (miRNA assay), 1-2 days before reading. Measurement: 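Per-well ratio of Renilla over firefly light, expressed relative to that plate's average ratio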. Rule for the call: 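a well was a first-pass pick when its plate-scaled ratio rose above 1.5 (siRNA assay) or 1.6 (miRNA assay), or dropped below 0.6; a gene counted only if two separate dsRNAs agreed on retest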.
In all, the deposit lists about 23,000 reagents; this is an unselected part of those that have a named target and a result. In the full data, 199 (0.86%) were called active. 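Plate-scaled ratios behind the calls are not deposited; printed light signals are raw; many rows marked increased or decreased are still called inactive.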 Names joined by + are all predicted targets of the reagent. Reagent sequences are not shown. The record does not give: the direction of the score.

| gene knocked down | PubChem SID | stable siRNA reporter change | miRNA reporter change | stable assay Renilla, run 1 (luminescence) | stable assay firefly, run 1 (luminescence) | call |
| --- | --- | --- | --- | --- | --- | --- |
| CG13856 | SID104194498 | – | – | 6635 | 3.66e5 | inactive |
| Gpa2 | SID104200863 | – | – | 6218 | 4.46e5 | inactive |
| Jhbp16 | SID104194831 | – | – | 6856 | 3.66e5 | inactive |
| CG13308 | SID104189771 | – | – | 5999 | 3.46e5 | inactive |
| Ir7c | SID104197799 | – | – | 6034 | 3.59e5 | inactive |
| CG34022 (retired record) | SID104187741 | – | – | 6559 | 4.24e5 | inactive |
| X11Lbeta | SID104197948 | – | – | 5198 | 4.12e5 | inactive |
| X11Lbeta | SID104197950 | – | – | 5087 | 4.12e5 | inactive |
| mus301 | SID104190731 | – | – | 5950 | 3.83e5 | inactive |
| CG18139 (retired record) + Hmx | SID104195099 | – | – | 6708 | 4.18e5 | inactive |
| Drsl2 | SID104187952 | – | – | 5382 | 4.40e5 | inactive |
| Rga | SID104192156 | – | – | 9075 | 5.57e5 | inactive |
| fd19B | SID104200480 | – | – | 2995 | 3.40e5 | inactive |
| CG42342 | SID104192957 | – | – | 3631 | 3.54e5 | inactive |
| CG42342 | SID104194170 | – | reporter ratio raised past the hit cutoff | 3395 | 2.60e5 | inactive |
| CG42342 | SID104194802 | – | – | 6886 | 5.17e5 | inactive |
| CG42342 | SID104194803 | – | – | 6763 | 4.56e5 | inactive |
| CG42342 | SID104194804 | – | – | 6243 | 4.22e5 | inactive |
| CG42342 | SID104201451 | – | – | 8874 | 4.46e5 | inactive |
| CG42342 | SID104202220 | – | – | 5387 | 5.64e5 | inactive |
| CG42342 | SID104202469 | – | – | 4008 | 3.53e5 | inactive |
| CG17528 | SID104187553 | – | – | 5319 | 3.21e5 | inactive |
| CG17568 | SID104182420 | – | – | 4976 | 3.64e5 | inactive |
| CheA7a | SID104197757 | – | – | 6039 | 2.99e5 | inactive |
| eEFSec | SID104184363 | – | – | 6874 | 3.56e5 | inactive |
| rho-6 | SID104182380 | – | – | 6791 | 5.01e5 | inactive |
| CG31953 (retired record) + gkt | SID104180501 | – | – | 15029 | 2.01e5 | inactive |
| CG31437 | SID104193503 | – | – | 7994 | 5.54e5 | inactive |
| sip2 | SID104182946 | – | – | 7295 | 3.91e5 | inactive |
| Exd2 | SID104195897 | – | – | 6387 | 3.69e5 | inactive |
| spict | SID104181949 | – | – | 31823 | 4.54e5 | inactive |
| CG4328 | SID104190202 | – | – | 4008 | 1.99e5 | inactive |
| CG4328 | SID104202503 | – | – | 5908 | 3.61e5 | inactive |
| CG42269 | SID104190462 | – | – | 7091 | 5.27e5 | inactive |
| CG42269 | SID104190464 | – | – | 6308 | 4.23e5 | inactive |
| CG9628 | SID104190874 | – | – | 8415 | 3.19e5 | inactive |
| REG | SID104200065 | – | – | 5498 | 3.64e5 | inactive |
| Lim3 | SID104182267 | – | – | 5999 | 3.83e5 | inactive |
| Lim3 | SID104183155 | – | – | 5327 | 2.32e5 | inactive |
| Lim3 | SID104201726 | – | – | 7620 | 3.14e5 | inactive |
| Lim3 | SID104202053 | – | – | 3971 | 2.98e5 | inactive |
| Lim3 | SID104202391 | – | – | 4543 | 2.72e5 | inactive |
| shv | SID104180432 | – | – | 7098 | 4.54e5 | inactive |
| shv | SID104201680 | – | – | 8878 | 5.25e5 | inactive |
| CG14817 | SID104198339 | – | – | 5975 | 4.00e5 | inactive |
| CG33465 | SID104185379 | – | – | 5820 | 4.58e5 | inactive |
| Prp38 | SID104186852 | – | – | 10112 | 4.89e5 | inactive |
| l(1)G0196 | SID104200383 | – | – | 3639 | 2.98e5 | inactive |
| l(1)G0196 | SID104200420 | – | – | 7079 | 4.14e5 | inactive |
| l(1)G0196 | SID104200421 | – | – | 6039 | 5.07e5 | inactive |
| chic | SID104183299 | – | – | 7194 | 4.69e5 | inactive |
| Argk2 | SID104190275 | – | – | 6254 | 4.47e5 | inactive |
| Argk2 | SID104202706 | – | – | 4552 | 3.93e5 | inactive |
| CG31226 | SID104201396 | – | – | 8942 | 6.19e5 | inactive |
| CG31917 + Tfb5 | SID104182154 | – | – | 7698 | 4.84e5 | inactive |
| CG31917 + Tfb5 | SID104182155 | – | – | 9860 | 6.24e5 | inactive |
| Prx2 | SID104200048 | – | – | 4864 | 3.15e5 | inactive |
| CG5267 | SID104186720 | – | – | 6464 | 2.88e5 | inactive |
| snRNP-U1-70K | SID104183404 | – | reporter ratio raised past the hit cutoff | 4731 | 4.03e5 | active |
| snRNP-U1-70K | SID104201645 | reporter ratio raised past the hit cutoff | reporter ratio raised past the hit cutoff | 22201 | 4.88e5 | active |
| snRNP-U1-70K | SID104207347 | – | reporter ratio raised past the hit cutoff | – | – | active |
| CG34269 | SID104187676 | – | – | 5443 | 4.27e5 | inactive |
| fw | SID104200126 | – | – | 4871 | 3.90e5 | inactive |
| CG3808 | SID104190169 | – | – | 7441 | 4.66e5 | inactive |
| rin | SID104196837 | reporter ratio raised past the hit cutoff | – | 6126 | 2.10e5 | inactive |
| rin | SID104202354 | – | – | 3219 | 2.85e5 | inactive |
| Fdh | SID104196462 | – | – | 7754 | 3.77e5 | inactive |
| MsR1 | SID104188407 | – | – | 5383 | 3.76e5 | inactive |
| SmD3 | SID104187345 | – | – | 10941 | 4.07e5 | inactive |
| PolD1 | SID104190930 | – | – | 9137 | 3.94e5 | inactive |
| Sry-alpha | SID104196659 | – | – | 4615 | 3.24e5 | inactive |
| CR42745 (retired record) | SID104193548 | – | – | 6279 | 5.19e5 | inactive |
| Best4 | SID104190584 | – | – | 8348 | 3.74e5 | inactive |
| CG7252 | SID104190581 | – | – | 6216 | 3.46e5 | inactive |
| CG7252 | SID104201221 | – | – | 8287 | 3.95e5 | inactive |
| CG5004 | SID104199721 | – | – | 3823 | 3.82e5 | inactive |
| CG5004 | SID104199722 | – | – | 4515 | 4.61e5 | inactive |
| CG5004 | SID104199915 | – | – | 2816 | 2.03e5 | inactive |
| CG17029 | SID104190032 | – | – | 7119 | 3.12e5 | inactive |
| side-II | SID104181219 | – | – | 5943 | 4.42e5 | inactive |
| side-II | SID104181221 | – | – | 5548 | 4.23e5 | inactive |
| side-II | SID104181705 | – | – | 7786 | 3.87e5 | inactive |
| side-II | SID104181724 | – | – | 5516 | 4.91e5 | inactive |
| side-II | SID104182272 | – | – | 5323 | 5.81e5 | inactive |
| side-II | SID104201957 | – | – | 3447 | 2.92e5 | inactive |
| CheB53a | SID104186417 | – | – | 6107 | 3.01e5 | inactive |
| shg | SID104184506 | – | – | 63680 | 3.77e5 | inactive |
| Nop60B | SID104184419 | – | – | 15666 | 1.24e6 | inactive |
| Arglu1 | SID104182701 | – | – | 8331 | 3.76e5 | inactive |
| Gr64d + Gr64e | SID104188238 | – | – | 5283 | 4.79e5 | inactive |
| CG42588 | SID104189612 | – | – | 5523 | 3.84e5 | inactive |
| CG42588 | SID104201679 | – | – | 9933 | 6.05e5 | inactive |
| Pglym87 | SID104195044 | – | – | 6414 | 4.50e5 | inactive |
| CG33784 | SID104192556 | – | – | 6750 | 3.82e5 | inactive |
| Sin1 | SID104185757 | – | – | 7995 | 4.23e5 | inactive |
| CG6664 | SID104190482 | – | – | 7292 | 2.76e5 | inactive |
| CG15096 | SID104186317 | – | – | 10805 | 4.94e5 | inactive |
| Snx16 | SID104186776 | – | – | 6479 | 3.03e5 | inactive |
| CG3448 | SID104190160 | – | – | 6450 | 3.58e5 | inactive |
| CG8908 | SID104187089 | – | – | 6643 | 2.71e5 | inactive |
| fs(1)M3 | SID104198173 | – | – | 7302 | 4.15e5 | inactive |
| Snap25 | SID104201020 | – | – | 5727 | 5.11e5 | inactive |
| Snap25 | SID104201028 | – | – | 4655 | 3.62e5 | inactive |
| CG10984 | SID104189609 | – | – | 7724 | 3.45e5 | inactive |
| CG10984 | SID104206931 | – | reporter ratio lowered past the hit cutoff | – | – | inactive |
| CG8299 | SID104186931 | – | – | 6659 | 4.21e5 | inactive |

Single entries from above.
fw [SID104200126], call: inactive
For “call”, Snap25 [SID104201020] is entered as inactive
CG31437 [SID104193503], call → inactive
Sry-alpha [SID104196659], call = inactive
CG42342 [SID104201451], stable assay firefly, run 1 (luminescence) → 4.46e5
Entry of CheB53a [SID104186417] in “call”: inactive
